In assay [1] the target is STAT3 fragment with the SH2 domain (UniProt P40763). Put plainly: co-IP; truncated mutants of MELK and of STAT3 tested against the other protein; the method is not named for this experiment (CoIP is the only such method in the paper's methods); cells not named.
The target in assay [2] is Maternal embryonic leucine zipper kinase (MELK) (human (in SK-HEP1 and HCC-LM3 cells)) (UniProt Q14680). Description: co-IP; lysates of SK-HEP1 and HCC-LM3 cells in IP buffer; antibody (MELK, STAT3 or normal rabbit IgG) on Protein A/G magnetic beads, 4 °C overnight; washed with PBST; immunoblot.

Amino acid sequences for entries named in this document (tags omitted). A change or cut given only in a name is not applied to a line headed by its entry. Residues count along the entry.
UniProt P40763: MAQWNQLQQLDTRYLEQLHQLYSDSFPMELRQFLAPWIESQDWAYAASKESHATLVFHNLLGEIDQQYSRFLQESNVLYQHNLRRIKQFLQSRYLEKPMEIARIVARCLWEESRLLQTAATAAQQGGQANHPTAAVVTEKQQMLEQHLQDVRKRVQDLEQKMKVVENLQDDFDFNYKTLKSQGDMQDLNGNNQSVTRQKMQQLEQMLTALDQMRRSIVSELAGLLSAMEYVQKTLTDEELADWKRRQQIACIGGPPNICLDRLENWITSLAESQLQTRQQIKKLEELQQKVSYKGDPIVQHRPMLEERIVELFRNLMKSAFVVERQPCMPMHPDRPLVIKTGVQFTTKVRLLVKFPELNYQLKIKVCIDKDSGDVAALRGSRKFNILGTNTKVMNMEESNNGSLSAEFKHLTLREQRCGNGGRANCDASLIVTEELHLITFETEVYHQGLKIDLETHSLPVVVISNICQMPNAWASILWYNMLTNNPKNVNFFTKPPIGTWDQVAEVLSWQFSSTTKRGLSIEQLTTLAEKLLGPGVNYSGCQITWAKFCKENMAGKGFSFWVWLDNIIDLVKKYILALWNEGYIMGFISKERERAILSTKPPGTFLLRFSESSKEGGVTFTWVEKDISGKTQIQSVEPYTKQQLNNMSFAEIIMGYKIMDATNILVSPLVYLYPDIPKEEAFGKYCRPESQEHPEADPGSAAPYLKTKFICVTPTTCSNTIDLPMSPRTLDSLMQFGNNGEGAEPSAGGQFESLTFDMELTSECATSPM
STAT3 fragment with the SH2 domain: residues 580-670 of P40763
UniProt Q14680: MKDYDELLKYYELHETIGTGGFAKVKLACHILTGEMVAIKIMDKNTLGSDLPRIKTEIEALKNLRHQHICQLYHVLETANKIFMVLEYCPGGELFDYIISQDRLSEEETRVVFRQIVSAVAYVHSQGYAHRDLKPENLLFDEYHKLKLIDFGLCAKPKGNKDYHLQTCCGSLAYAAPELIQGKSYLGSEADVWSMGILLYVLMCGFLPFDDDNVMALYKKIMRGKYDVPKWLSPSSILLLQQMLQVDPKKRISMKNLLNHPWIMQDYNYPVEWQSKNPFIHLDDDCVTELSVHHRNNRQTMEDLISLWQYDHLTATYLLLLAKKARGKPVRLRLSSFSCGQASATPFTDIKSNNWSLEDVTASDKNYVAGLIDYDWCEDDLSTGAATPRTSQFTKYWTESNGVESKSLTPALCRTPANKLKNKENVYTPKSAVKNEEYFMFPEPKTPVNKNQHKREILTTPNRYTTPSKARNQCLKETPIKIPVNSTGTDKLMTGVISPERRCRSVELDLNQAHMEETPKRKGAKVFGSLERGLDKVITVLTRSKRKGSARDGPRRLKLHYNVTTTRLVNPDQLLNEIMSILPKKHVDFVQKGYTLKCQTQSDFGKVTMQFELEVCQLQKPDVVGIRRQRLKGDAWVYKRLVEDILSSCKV

The source of these data is publication PMC11225310.

These are yes or no findings as the source states them, for the method shown. In cells and extracts the contact can be indirect. Some binding calls cover weakened binding; strength is not graded here.

Regarding “MELK (partner in the mapping of STAT3 fragments) (from UniProt Q14680 1-651)”, the binding entry in assay [1] is reported as “binds”.

In the case of STAT3 (from UniProt P40763 1-770), the binding result in assay [2] was “binds”.
